Experimental findings from publication PMC3624461 are described below.

Sequences of proteins named here, by UniProt entry; tags and fusion partners are left off. A change or cut given only in a name is not applied to a line headed by its entry.
UniProt Q8NBP7: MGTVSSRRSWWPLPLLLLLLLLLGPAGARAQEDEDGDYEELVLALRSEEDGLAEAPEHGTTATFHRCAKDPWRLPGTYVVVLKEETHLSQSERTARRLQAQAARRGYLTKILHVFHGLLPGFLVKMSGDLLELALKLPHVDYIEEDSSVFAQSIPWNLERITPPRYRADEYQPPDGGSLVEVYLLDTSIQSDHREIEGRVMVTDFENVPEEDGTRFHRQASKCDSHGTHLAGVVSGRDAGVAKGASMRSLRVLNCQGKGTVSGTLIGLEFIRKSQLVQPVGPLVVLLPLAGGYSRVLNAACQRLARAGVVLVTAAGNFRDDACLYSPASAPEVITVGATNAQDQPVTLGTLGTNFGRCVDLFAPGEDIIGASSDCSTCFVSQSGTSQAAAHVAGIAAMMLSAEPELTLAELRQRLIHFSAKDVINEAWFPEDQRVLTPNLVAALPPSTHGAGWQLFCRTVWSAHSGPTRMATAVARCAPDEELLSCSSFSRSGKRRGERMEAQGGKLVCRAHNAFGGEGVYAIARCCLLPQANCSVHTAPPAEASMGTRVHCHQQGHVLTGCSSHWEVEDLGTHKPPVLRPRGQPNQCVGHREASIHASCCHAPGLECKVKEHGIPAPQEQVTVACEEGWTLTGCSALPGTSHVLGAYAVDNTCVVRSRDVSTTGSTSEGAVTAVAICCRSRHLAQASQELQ
UniProt P53621: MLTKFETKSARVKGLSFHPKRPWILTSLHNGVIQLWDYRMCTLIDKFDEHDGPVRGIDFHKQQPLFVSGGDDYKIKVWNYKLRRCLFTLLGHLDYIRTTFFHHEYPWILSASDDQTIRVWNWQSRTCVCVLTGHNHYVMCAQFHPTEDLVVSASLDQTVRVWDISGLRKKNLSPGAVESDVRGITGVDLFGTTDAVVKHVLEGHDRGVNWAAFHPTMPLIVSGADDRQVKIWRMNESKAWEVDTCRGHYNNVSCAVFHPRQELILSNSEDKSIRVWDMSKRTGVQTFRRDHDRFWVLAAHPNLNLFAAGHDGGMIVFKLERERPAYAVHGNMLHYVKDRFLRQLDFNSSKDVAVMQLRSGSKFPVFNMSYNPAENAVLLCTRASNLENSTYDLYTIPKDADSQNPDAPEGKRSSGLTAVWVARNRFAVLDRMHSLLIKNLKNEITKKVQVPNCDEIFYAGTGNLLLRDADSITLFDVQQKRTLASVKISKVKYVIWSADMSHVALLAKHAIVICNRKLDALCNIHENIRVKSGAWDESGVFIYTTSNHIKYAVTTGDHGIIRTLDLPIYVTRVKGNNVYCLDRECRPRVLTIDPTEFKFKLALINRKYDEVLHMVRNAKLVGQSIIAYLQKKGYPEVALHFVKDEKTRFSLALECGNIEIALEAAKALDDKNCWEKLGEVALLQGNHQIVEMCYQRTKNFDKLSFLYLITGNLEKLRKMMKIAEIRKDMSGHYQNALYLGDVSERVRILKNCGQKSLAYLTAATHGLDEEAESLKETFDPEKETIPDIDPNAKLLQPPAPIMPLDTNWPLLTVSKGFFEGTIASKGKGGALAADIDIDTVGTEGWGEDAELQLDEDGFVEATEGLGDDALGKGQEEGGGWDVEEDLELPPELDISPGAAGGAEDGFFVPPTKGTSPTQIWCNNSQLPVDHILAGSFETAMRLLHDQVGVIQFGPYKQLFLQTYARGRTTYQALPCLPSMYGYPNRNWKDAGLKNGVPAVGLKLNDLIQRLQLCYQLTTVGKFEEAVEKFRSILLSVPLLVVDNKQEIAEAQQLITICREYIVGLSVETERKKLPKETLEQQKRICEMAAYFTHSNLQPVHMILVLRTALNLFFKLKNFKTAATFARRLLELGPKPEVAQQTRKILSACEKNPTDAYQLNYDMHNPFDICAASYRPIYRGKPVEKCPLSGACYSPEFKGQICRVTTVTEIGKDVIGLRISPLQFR
UniProt Q14573: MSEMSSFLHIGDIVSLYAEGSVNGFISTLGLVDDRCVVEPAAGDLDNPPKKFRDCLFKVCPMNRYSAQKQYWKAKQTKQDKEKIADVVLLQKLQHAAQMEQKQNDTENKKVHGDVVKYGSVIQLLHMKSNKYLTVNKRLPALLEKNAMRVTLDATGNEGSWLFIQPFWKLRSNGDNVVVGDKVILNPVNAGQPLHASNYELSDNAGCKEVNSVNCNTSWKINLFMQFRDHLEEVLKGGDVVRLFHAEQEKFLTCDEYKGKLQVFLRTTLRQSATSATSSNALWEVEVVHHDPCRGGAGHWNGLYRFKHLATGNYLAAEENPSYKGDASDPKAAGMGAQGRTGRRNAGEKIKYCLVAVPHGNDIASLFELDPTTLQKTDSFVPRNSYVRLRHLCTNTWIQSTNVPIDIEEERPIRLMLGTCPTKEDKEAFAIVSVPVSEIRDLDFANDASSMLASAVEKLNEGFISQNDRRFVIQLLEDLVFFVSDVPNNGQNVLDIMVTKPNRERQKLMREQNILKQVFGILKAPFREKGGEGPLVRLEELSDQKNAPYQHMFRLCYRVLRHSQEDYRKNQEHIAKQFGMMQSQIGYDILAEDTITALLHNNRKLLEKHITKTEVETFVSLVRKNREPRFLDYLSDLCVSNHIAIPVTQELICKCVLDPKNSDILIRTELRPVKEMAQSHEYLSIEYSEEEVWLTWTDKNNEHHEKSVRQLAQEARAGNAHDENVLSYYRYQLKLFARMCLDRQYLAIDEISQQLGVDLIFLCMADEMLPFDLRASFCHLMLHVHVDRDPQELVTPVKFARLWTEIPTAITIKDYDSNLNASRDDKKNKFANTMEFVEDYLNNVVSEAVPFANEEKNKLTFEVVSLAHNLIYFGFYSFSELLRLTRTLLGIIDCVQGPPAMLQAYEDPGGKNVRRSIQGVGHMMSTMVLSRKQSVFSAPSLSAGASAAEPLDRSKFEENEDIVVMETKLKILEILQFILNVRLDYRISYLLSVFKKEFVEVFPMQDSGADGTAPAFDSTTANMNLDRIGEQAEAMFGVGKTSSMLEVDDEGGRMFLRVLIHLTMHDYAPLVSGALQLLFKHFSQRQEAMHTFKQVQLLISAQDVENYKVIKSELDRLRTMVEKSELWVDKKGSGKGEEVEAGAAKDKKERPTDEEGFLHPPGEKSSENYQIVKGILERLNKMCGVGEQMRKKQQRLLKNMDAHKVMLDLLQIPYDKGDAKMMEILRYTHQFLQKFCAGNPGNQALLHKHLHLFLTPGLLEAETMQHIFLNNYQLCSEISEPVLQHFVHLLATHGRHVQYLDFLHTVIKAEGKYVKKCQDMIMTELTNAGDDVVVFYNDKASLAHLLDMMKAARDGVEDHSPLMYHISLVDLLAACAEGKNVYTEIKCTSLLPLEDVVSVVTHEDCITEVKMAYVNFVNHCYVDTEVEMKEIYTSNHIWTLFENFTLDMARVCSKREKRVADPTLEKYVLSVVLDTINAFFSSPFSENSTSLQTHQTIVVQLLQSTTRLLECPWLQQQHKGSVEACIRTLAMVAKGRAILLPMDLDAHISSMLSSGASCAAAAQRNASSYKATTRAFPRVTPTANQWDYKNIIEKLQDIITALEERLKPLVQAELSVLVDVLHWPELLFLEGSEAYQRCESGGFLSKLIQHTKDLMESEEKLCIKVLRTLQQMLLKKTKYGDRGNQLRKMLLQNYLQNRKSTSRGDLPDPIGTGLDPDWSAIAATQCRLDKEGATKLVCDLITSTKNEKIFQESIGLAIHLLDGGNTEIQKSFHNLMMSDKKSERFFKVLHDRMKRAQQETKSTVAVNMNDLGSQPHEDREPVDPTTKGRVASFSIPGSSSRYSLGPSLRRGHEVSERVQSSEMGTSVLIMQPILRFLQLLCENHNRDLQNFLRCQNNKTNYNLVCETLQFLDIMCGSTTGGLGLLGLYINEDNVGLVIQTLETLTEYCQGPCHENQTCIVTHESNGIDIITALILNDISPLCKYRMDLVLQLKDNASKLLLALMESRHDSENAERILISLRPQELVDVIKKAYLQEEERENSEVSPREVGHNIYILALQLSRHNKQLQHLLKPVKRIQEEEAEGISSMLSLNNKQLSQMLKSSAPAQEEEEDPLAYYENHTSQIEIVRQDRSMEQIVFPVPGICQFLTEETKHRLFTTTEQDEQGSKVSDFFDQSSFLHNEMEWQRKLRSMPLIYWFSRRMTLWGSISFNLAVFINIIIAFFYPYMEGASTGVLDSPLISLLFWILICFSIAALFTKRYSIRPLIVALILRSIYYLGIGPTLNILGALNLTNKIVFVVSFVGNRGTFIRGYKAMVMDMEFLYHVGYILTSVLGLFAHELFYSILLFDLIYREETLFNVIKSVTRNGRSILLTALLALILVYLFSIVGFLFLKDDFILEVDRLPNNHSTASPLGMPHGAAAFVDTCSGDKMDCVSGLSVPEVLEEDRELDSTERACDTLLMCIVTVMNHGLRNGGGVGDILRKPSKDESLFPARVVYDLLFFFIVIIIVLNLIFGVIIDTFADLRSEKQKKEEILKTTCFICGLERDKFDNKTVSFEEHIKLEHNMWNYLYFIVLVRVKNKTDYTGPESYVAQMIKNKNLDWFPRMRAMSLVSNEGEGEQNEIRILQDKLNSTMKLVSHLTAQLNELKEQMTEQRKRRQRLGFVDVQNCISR
UniProt Q15436: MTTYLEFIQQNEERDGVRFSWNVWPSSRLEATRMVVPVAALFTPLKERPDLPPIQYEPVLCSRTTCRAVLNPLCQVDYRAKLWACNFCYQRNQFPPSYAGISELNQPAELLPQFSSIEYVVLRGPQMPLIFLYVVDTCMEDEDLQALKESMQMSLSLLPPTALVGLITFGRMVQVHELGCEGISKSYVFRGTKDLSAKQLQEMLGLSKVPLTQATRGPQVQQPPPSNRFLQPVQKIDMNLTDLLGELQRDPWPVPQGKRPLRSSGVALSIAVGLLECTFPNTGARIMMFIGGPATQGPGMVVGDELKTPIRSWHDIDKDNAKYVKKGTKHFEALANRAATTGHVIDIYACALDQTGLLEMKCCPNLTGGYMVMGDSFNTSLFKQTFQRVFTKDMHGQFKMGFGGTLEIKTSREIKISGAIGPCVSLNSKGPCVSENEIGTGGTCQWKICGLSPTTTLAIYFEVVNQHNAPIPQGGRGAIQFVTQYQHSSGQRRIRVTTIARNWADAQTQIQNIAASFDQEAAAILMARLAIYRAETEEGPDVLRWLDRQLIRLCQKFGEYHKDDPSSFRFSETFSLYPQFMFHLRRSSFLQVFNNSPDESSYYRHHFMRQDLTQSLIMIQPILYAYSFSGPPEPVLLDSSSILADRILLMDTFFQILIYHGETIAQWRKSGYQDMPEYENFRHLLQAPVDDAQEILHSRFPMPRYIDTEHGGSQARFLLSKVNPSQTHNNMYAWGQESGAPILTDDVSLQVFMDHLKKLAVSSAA
UniProt Q9Y5X1: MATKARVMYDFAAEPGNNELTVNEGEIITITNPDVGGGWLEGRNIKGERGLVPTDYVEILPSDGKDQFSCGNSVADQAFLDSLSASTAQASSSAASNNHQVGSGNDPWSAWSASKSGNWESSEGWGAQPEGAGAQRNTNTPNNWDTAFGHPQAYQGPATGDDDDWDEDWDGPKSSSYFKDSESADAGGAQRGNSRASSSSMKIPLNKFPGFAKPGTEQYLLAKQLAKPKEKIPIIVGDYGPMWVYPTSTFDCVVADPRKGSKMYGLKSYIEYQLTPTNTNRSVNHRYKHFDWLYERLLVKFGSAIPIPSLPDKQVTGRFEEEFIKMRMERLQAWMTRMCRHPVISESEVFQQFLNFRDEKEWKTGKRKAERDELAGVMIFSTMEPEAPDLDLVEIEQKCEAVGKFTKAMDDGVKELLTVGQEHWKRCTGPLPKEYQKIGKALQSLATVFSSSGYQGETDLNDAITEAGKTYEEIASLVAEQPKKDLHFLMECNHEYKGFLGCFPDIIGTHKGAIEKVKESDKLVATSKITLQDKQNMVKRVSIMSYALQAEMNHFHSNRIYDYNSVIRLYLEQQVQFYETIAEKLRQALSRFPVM

First the molecules themselves.
B1: Squamous cell carcinoma antigen recognized by T-cells 3 (protein, UniProt Q15020 1-963)
chain: MATAAETSASEPEAESKAGPKADGEEDEVKAARTRRKVLSRAVAAATYKTMGPAWDQQEEGVSESDGDEYAMASSAESSPGEYEWEYDEEEEKNQLEIERLEEQLSINVYDYNCHVDLIRLLRLEGELTKVRMARQKMSEIFPLTEELWLEWLHDEISMAQDGLDREHVYDLFEKAVKDYICPNIWLEYGQYSVGGIGQKGGLEKVRSVFERALSSVGLHMTKGLALWEAYREFESAIVEAARLEKVHSLFRRQLAIPLYDMEATFAEYEEWSEDPIPESVIQNYNKALQQLEKYKPYEEALLQAEAPRLAEYQAYIDFEMKIGDPARIQLIFERALVENCLVPDLWIRYSQYLDRQLKVKDLVLSVHNRAIRNCPWTVALWSRYLLAMERHGVDHQVISVTFEKALNAGFIQATDYVEIWQAYLDYLRRRVDFKQDSSKELEELRAAFTRALEYLKQEVEERFNESGDPSCVIMQNWARIEARLCNNMQKARELWDSIMTRGNAKYANMWLEYYNLERAHGDTQHCRKALHRAVQCTSDYPEHVCEVLLTMERTEGSLEDWDIAVQKTETRLARVNEQRMKAAEKEAALVQQEEEKAEQRKRARAEKKALKKKKKIRGPEKRGADEDDEKEWGDDEEEQPSKRRRVENSIPAAGETQNVEVAAGPAGKCAAVDVEPPSKQKEKAASLKRDMPKVLHDSSKDSITVFVSNLPYSMQEPDTKLRPLFEACGEVVQIRPIFSNRGDFRGYCYVEFKEEKSALQALEMDRKSVEGRPMFVSPCVDKSKNPDFKVFRYSTSLEKHKLFISGLPFSCTKEELEEICKAHGTVKDLRLVTNRAGKPKGLAYVEYENESQASQAVMKMDGMTIKENIIKVAISNPPQRKVPEKPETRKAPGGPMLLPQTYGARGKGRTQLSLLPRALQRPSAAAPQAENGPAAAPAVAAPAATEAPKMSNADFAKLFLRK
B2: Peptidyl-prolyl cis-trans isomerase-like 4 (protein, UniProt Q8WUA2 1-492)
chain: MAVLLETTLGDVVIDLYTEERPRACLNFLKLCKIKYYNYCLIHNVQRDFIIQTGDPTGTGRGGESIFGQLYGDQASFFEAEKVPRIKHKKKGTVSMVNNGSDQHGSQFLITTGENLDYLDGVHTVFGEVTEGMDIIKKINETFVDKDFVPYQDIRINHTVILDDPFDDPPDLLIPDRSPEPTREQLDSGRIGADEEIDDFKGRSAEEVEEIKAEKEAKTQAILLEMVGDLPDADIKPPENVLFVCKLNPVTTDEDLEIIFSRFGPIRSCEVIRDWKTGESLCYAFIEFEKEEDCEKAFFKMDNVLIDDRRIHVDFSQSVAKVKWKGKGGKYTKSDFKEYEKEQDKPPNLVLKDKVKPKQDTKYDLILDEQAEDSKSSHSHTSKKHKKKTHHCSEEKEDEDYMPIKNTNQDIYREMGFGHYEEEESCWEKQKSEKRDRTQNRSRSRSRERDGHYSNSHKSKYQTDLYERERSKKRDRSRSPKKSKDKEKSKYR
B3: Uncharacterized protein C4orf14 (protein, UniProt Q8NC60 1-698)
chain: MLPARLPFRLLSLFLRGSAPTAARHGLREPLLERRCAAASSFQHSSSLGRELPYDPVDTEGFGEGGDMQERFLFPEYILDPEPQPTREKQLQELQQQQEEEERQRQQRREERRQQNLRARSREHPVVGHPDPALPPSGVNCSGCGAELHCQDAGVPGYLPREKFLRTAEADGGLARTVCQRCWLLSHHRRALRLQVSREQYLELVSAALRRPGPSLVLYMVDLLDLPDALLPDLPALVGPKQLIVLGNKVDLLPQDAPGYRQRLRERLWEDCARAGLLLAPGHQGPQRPVKDEPQDGENPNPPNWSRTVVRDVRLISAKTGYGVEELISALQRSWRYRGDVYLVGATNAGKSTLFNTLLESDYCTAKGSEAIDRATISPWPGTTLNLLKFPICNPTPYRMFKRHQRLKKDSTQAEEDLSEQEQNQLNVLKKHGYVVGRVGRTFLYSEEQKDNIPFEFDADSLAFDMENDPVMGTHKSTKQVELTAQDVKDAHWFYDTPGITKENCILNLLTEKEVNIVLPTQSIVPRTFVLKPGMVLFLGAIGRIDFLQGNQSAWFTVVASNILPVHITSLDRADALYQKHAGHTLLQIPMGGKERMAGFPPLVAEDIMLKEGLGASEAVADIKFSSAGWVSVTPNFKDRLHLRGYTPEGTVLTVRPPLLPYIVNIKGQRIKKSVAYKTKKPPSLMYNVRKKKGKINV

These are yes or no findings as the source states them, for the method shown. Binding seen in cells or lysates may run through a third protein. Here binding means that the protein was enriched with, or labelled near, the bait; the list need not be complete. For some of these results: A no says only that the protein was not detected with the bait.

One assay has as its target Proprotein convertase subtilisin/kexin type 9 (PCSK9), recombinant full-length (human) (UniProt Q8NBP7). In words: affinity purification with mass spectrometry; as a1 but at pH 7.4, protein A Dynabeads, eluted by boiling; only the target purified.
With “Amyloid β A4 protein (APP), endogenous (from UniProt P05067 18-770)”, the binding result is “no binding (only at pH 7.4)”. As for “Amyloid-like protein 2 (APLP2), endogenous (from UniProt Q06481 32-763)”, the binding result is “no binding (only at pH 7.4)”.

A further assay shares this target. In words: affinity purification with mass spectrometry; PCSK9 (20 μg/ml) premixed with J16 (40 μg/ml), added to precleared HepG2 or HEK293 lysate in IP buffer pH 6.0 (0.5% Triton X-100, 20 mM Hepes, 150 mM NaCl, 20 mM CaCl2), 2 h; protein G beads; eluted with pH 8.0 IP buffer; LC-MS/MS; J16 without PCSK9 as negative control; only the target purified.
As for B1, the binding entry was “binds”. Take B2: the binding entry is “binds”.

With B3, the binding entry is “binds”.

The target is the same in a further assay. The description is as above. The source holds these as a separate data set.
“Amyloid β A4 protein (APP), endogenous (from UniProt P05067 18-770)”: the binding entry is listed as “binds”. On the same count and under the same terms, the result for “Amyloid-like protein 2 (APLP2), endogenous (from UniProt Q06481 32-763)” reads “binds”. On the same count and under the same terms, the result for “Coatomer subunit α (from UniProt P53621 1-1224)” reads “binds”. As to “Inositol 1,4,5-trisphosphate receptor type 3 (from UniProt Q14573 1-2671)”, the binding entry is listed as “binds”. For the molecule “Protein transport protein Sec23A (from UniProt Q15436 1-765)”, the binding entry was “binds”. Same read-out and setting: the result for “Sorting nexin-9 (from UniProt Q9Y5X1 1-595)” reads “binds”; that for “U5 small nuclear ribonucleoprotein 200-kDa helicase (from UniProt O75643 1-2136)”, “binds”. “Ubiquitin C-terminal hydrolase 7 (from UniProt Q93009 1-1102)”: the binding result is recorded as “binds”.
